Values of other authors as cited in patent US20090087443A1, “Pharmacological Adjunctive Treatment Associated with Glaucoma Filtration Surgery” (priority 2007, published 2009).
At least one structure is not confirmed: it was looked up by name or label, or the drawing left a doubt.

What was measured:
[1] = test system: TGF-β-induced collagen synthesis; details: C. Boxall et al., Eur. Respir. J. 27, 208 (2006); cited from earlier work
[2] = test system: human Tenon's capsule fibroblasts; details: R. Sun et al., Ophthalmic Surg. Laser 30, 382 (1999); cited from earlier work

SMILES: C[C@@H]1C[C@H]2[C@@H]3CCC4=CC(=O)C=C[C@]4(C)[C@@]3(F)[C@@H](O)C[C@]2(C)[C@@]1(O)C(=O)CO [dexamethasone, reference compound]
- Effect on TGF-β-induced collagen synthesis [1]: block
- Effect on human Tenon's capsule fibroblasts growth in cell cultures [2]: significantly inhibit
